Results: the M2OR odorant receptor database
The entries are a selection whose mix differs from that of the whole data set. Calls are pooled over several reports, among them a noisy single-well screen. Some of the results follow.

How the values were obtained:
Conditions in all cases: stereoisomer not certain
OR2K2 (Homo sapiens) = target: T1, OR2K2 (Homo sapiens) (UniProt Q8NGT1)
T1 sequence (whole entry): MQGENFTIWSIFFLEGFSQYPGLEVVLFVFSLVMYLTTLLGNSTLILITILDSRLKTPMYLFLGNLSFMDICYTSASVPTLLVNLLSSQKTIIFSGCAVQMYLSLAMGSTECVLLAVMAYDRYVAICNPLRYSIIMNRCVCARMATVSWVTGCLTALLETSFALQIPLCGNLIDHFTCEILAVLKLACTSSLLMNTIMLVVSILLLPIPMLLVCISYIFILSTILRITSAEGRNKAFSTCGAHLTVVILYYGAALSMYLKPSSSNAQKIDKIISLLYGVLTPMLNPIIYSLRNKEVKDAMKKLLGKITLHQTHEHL
Summary of the method: (§1)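 Assay methods differ from source to source, frequently being transient luciferase assays in mammalian cell lines. For each receptor–molecule pair, the label responsive (active) applies when the original authors judged the measured signal statistically different from baseline, and non-responsive (inactive) applies otherwise.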

OR2L13 (Homo sapiens) = target: T2, OR2L13 (Homo sapiens) (UniProt Q8N349)
T2 sequence (whole entry): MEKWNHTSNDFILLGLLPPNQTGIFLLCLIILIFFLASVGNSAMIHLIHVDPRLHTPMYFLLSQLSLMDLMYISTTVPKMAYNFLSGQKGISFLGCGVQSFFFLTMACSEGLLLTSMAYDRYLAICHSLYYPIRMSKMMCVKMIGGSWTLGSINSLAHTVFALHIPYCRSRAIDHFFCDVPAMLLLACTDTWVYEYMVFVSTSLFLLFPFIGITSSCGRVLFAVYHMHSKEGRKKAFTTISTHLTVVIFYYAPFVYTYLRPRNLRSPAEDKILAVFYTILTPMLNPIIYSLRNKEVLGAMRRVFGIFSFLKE
Summary of the method: as §1

OR2L2 (Homo sapiens) = target: T3, OR2L2 (Homo sapiens) (UniProt Q8NH16)
T3 sequence (whole entry): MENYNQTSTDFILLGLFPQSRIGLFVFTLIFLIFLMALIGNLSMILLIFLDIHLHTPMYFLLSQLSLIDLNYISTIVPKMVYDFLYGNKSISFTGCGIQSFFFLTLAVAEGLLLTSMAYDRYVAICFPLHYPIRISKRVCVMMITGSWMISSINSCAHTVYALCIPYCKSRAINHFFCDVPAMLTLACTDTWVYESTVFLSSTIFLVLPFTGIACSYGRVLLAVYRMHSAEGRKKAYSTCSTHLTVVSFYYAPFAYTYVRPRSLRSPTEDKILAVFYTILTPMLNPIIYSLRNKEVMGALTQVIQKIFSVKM
Summary of the method: as §1

OR2L3 = test system: T4, OR2L3
T4 sequence (whole entry): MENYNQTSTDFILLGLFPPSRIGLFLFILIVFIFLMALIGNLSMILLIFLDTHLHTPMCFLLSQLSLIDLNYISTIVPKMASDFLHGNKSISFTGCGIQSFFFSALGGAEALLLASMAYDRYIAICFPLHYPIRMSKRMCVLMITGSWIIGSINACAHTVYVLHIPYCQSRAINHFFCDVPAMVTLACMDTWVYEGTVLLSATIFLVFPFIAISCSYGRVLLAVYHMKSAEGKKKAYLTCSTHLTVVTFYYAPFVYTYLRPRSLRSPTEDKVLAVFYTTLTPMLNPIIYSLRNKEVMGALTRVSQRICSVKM
Summary of the method: as §1

OR2L8 = test system: T5, OR2L8
T5 sequence (whole entry): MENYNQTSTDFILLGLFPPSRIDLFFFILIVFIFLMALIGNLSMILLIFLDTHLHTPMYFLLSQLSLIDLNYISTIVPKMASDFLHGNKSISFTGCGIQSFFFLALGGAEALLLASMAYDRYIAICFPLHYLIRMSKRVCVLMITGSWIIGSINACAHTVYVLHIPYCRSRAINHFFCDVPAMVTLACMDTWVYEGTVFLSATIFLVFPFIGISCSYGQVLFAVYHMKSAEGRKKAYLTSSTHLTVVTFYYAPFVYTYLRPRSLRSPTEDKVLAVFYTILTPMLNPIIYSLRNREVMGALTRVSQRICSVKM
Summary of the method: as §1

OR2M2 = test system: T6, OR2M2
T6 sequence (whole entry): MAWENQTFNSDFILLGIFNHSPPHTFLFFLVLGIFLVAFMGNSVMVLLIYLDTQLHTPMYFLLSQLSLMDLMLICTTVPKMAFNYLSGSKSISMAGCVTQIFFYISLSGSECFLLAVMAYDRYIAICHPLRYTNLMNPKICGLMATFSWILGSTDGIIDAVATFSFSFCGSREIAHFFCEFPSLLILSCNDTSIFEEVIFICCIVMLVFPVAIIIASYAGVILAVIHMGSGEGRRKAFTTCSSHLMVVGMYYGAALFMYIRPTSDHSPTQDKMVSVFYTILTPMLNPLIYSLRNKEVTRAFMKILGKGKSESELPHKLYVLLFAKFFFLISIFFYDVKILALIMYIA
Summary of the method: as §1

OR2M3 (Homo sapiens) = target: T7, OR2M3 (Homo sapiens) (UniProt Q8NG83)
T7 sequence (whole entry): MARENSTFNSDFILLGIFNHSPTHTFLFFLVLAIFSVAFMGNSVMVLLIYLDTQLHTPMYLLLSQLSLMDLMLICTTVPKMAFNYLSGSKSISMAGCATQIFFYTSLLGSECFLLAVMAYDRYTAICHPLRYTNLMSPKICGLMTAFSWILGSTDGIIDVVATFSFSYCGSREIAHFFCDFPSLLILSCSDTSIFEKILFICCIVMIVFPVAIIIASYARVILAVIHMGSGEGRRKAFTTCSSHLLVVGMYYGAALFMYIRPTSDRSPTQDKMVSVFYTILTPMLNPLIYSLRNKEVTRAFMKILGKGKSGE
Summary of the method: as §1

OR2M4 (Homo sapiens) = target: T8, OR2M4 (Homo sapiens) (UniProt Q96R27)
T8 sequence (whole entry): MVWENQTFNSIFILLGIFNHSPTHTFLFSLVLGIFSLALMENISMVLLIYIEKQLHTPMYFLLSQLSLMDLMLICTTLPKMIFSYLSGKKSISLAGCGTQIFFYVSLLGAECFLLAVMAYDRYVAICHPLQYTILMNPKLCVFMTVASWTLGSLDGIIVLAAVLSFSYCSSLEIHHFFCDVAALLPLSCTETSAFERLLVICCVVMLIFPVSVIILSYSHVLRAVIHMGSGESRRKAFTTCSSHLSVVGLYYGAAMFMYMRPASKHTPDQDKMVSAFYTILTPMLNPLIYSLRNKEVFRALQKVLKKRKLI
Summary of the method: as §1

OR2L5 (Homo sapiens) = target: T9, OR2L5 (Homo sapiens) (UniProt Q8NG80)
T9 sequence (whole entry): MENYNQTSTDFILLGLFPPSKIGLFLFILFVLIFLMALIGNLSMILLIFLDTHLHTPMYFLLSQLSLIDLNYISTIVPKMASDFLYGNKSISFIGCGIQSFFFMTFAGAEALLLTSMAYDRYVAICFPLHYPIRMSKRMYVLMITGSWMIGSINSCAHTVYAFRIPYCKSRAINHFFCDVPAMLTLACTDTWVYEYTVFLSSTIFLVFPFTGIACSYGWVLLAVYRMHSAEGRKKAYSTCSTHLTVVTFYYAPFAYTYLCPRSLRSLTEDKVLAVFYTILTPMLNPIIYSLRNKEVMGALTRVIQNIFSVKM
Summary of the method: as §1

Measured: odorant receptor agonist call

COC(=O)c1ccccc1
active: OR2M4 (Homo sapiens)
not listed: OR2L5 (Homo sapiens)
inactive: all other assays above

O=C1CCCCC1
not listed: OR2L5 (Homo sapiens)
inactive: all other assays above

c1cnccn1
inactive: all assays above

CC(=O)C(C)=O
inactive: all assays above

CC1=NC(C)SC1C (configuration not stated)
not listed: OR2L5 (Homo sapiens)
inactive: all other assays above

CCCCCCCCCC=O
inactive: all assays above

CC(C)C(=O)O
inactive: all assays above

CC12C=CCC1C1CCC3=CC(=O)CCC3(C)C1CC2 (configuration not stated)
inactive: all assays above

CC1CCC(C(C)C)C(O)C1 (configuration not stated)
active: OR2L13 (Homo sapiens) | OR2L3 | OR2L8
inactive: all other assays above

CC(C)(O)CCCC1=CCC(C=O)CC1 (configuration not stated)
inactive: OR2L13 (Homo sapiens)
active: OR2L5 (Homo sapiens)

C=C(C)C1CC=C(C)C(=O)C1 (configuration not stated)
inactive: OR2L13 (Homo sapiens) | OR2M3 (Homo sapiens)

O=CCc1ccccc1
active: OR2L5 (Homo sapiens)
inactive: all other assays above

CC(C)CCC(=O)O
inactive: all assays above

CC(=O)c1ccccc1
active: OR2M3 (Homo sapiens)
not listed: OR2L5 (Homo sapiens)
inactive: all other assays above

CC(C)C=O
inactive: all assays above
